# Hit rate of the full screen: of about 320,000 compounds, about 22,000 (6.9%) were called active. Inconclusive results, whose numbers are uncertain, are shown with a selection of clear calls. Calls come from the whole dose curve; as a rule, active = well fitted inhibition curve with a large enough effect; inconclusive = small, poorly fitted or top-dose-only effect, or another doubt; inactive = no such curve, though single readings can be large or run the other way. Potencies of inconclusive entries are doubtful fits and often do not repeat.
# Assay: Primary qHTS for delayed death inhibitors of the malarial parasite plastid, 96 hour incubation
# Conditions: P. falciparum luciferase reporter growth; series mostly up to 28.7 µM
# Summary of the method: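 Parasite growth measured via integrated firefly luciferase reporter in P. falciparum. Infected erythrocytes at 2% hematocrit, 0.05% parasitemia final were treated 96 hours at 37 C under 5% CO2, and luminescence was read.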
# Potency is the fitted concentration of half-maximal effect.
row,Compound,Potency
1,COc1ccc2c(c1)c1ncn(CCN3CCNCC3)c(=O)c1n2C,"inconclusive: 11.7 µM [inhibitor, single point]"
2,Cc1cc(C)nc(Sc2nc(Nc3ccccc3)nc(Sc3nc(C)cc(C)n3)n2)n1,"inconclusive: 0.147 µM [inhibitor, full curve, poor fit]"
3,CC(C)CCNC(=O)c1c(CSc2ccccc2)noc1C(=O)NCc1ccccc1,active: 13.1 µM
4,CCOc1ccc(S(=O)(=O)N2CCOCC2)cc1NC(=O)CN1C(=O)NC(C)(c2ccccc2)C1=O (stereo unspecified),"inconclusive: 13.1 µM [inhibitor, single point]"
5,CCCC(=O)N1N=C(c2ccccc2)CC1c1cn(C)c2ccccc12 (stereo unspecified),"inconclusive: 18.5 µM [inhibitor, single point]"
6,Fc1ccc(NC(=S)Nc2cccnc2)c(Cl)c1,"inconclusive: 20.8 µM [inhibitor, partial curve, poor fit]"
7,CCOc1ccc(N(C(=O)CNC(=O)c2cccs2)C(C(=O)NCC2CCCO2)c2ccc(OC)c(OC)c2)cc1 (stereo unspecified),inactive
8,COCCCn1c(-c2cccc(Cl)c2)nc2c1c(=O)[nH]c(=O)n2Cc1ccccc1,active: 10.4 µM
9,CCOC(=O)c1cc(-c2ccccc2)nc2nc(N3CCCCC3)sc12,inactive
10,O=C(CCCN1C(=O)/C(=C/c2ccccc2Cl)SC1=S)NNC(=O)c1ccc(Cl)cc1Cl,inactive
11,Cc1cc(C)c(S(=O)(=O)N2CCN(S(=O)(=O)N3CCC(C)CC3)CC2)c(C)c1,"inconclusive: 10.4 µM [inhibitor, single point]"
12,Cc1ccccc1NC(=O)COc1ccc2c(c1)OC(C)(C)CC2=O,inactive
13,Nc1[nH]n2c(=O)cc(-c3ccccc3)nc2c1N=Nc1ccccc1,"inconclusive: 0.0522 µM [inhibitor, full curve, poor fit]"
14,CCOc1ccc(C(F)(F)F)cc1NC(C)=O,"inconclusive: 0.415 µM [inhibitor, partial curve, poor fit]"
15,COc1ccc(S(=O)(=O)N(CC(=O)N2CCOCC2)c2cc(Cl)ccc2OC)cc1OC,"inconclusive: 0.415 µM [inhibitor, full curve, poor fit]"
16,COc1cc(C(=O)N/N=C/c2ccc3c(c2)c2ccccc2n3C)ccc1O,active: 9.28 µM
17,O=C(Cn1cc([N+](=O)[O-])cn1)NCc1ccccc1,"inconclusive: 11.7 µM [inhibitor, single point]"
18,CCOC(=O)C1(Cc2cccc(Cl)c2)CCCN(C2CCN(C(C)=O)CC2)C1 (stereo unspecified),inactive
19,Cc1ccc(CNCCc2ccc(F)cc2)s1,"inconclusive: 13.1 µM [inhibitor, partial curve, poor fit]"
20,Cc1cc(C(=O)OCC(=O)N2CC(C)OC(C)C2)c(C)n1-c1ccccc1 (stereo unspecified),"inconclusive: 10.4 µM [inhibitor, single point]"
21,c1ccc(-c2ccc3c(c2)NC(C2Nc4cc(-c5ccccc5)ccc4O2)O3)cc1 (stereo unspecified),"inconclusive: 1.85 µM [inhibitor, full curve]"

row,Compound,Potency
1,CCCCN(CCCC)CCCNC(=O)CN1C(=O)COc2ccc(S(=O)(=O)N3CCC(C)CC3)cc21,"inconclusive: 1.47 µM [inhibitor, partial curve, poor fit]"
2,CN(C)c1ccc(CN(CC2CCCO2)C(=O)c2cc3ccccc3o2)cc1 (stereo unspecified),"inconclusive: 0.928 µM [inhibitor, full curve, poor fit]"
3,COC(=O)C1=C(c2ccc(F)cc2OCc2ccccc2)C[C@@H]2CC[C@H]1N2C(=O)NCc1ccc(Br)cc1,"inconclusive: 2.62 µM [inhibitor, full curve]"
4,NNC(=S)Nc1ccc(OC(F)(F)F)cc1,"inconclusive: 16.5 µM [inhibitor, single point]"
5,CC(=O)Nc1ccc(C(=O)CN2C(=O)CSC2=O)cc1,"inconclusive: 5.86 µM [inhibitor, partial curve, poor fit]"
6,O=C(CSc1nc2ccccc2c(=O)n1Cc1ccccc1)NCc1ccco1,"inconclusive: 18.5 µM [inhibitor, single point]"
7,COc1ccc(NC(=O)c2c(SC)nsc2SC)cc1,"inconclusive: 9.28 µM [inhibitor, partial curve, poor fit]"
8,CCC1CN(C)C2Cc3c([nH]c4ccccc34)C(=O)CC1C2C(=O)OC (stereo unspecified),inactive
9,CCN(c1ccc(NC(=O)c2ccc(N3CCCC3=O)cc2)cc1)C(C)C,"inconclusive: 0.828 µM [inhibitor, full curve]"
10,C=CCN1C(=O)/C(=C\c2ccc(N3CCOCC3)o2)C(=O)NC1=S,"inconclusive: 10.4 µM [inhibitor, single point]"
11,COc1ccc(OC)c(-c2nc3cc4ccccc4cc3nc2-c2ccccc2)c1,"inconclusive: 18.5 µM [inhibitor, single point]"
12,Cc1sc(NC(=O)c2ccco2)c(C(c2cccnc2)N2CCN(c3ccc(F)cc3)CC2)c1C (stereo unspecified),"inconclusive: 13.1 µM [inhibitor, partial curve, poor fit]"
13,Cc1ccc(C(=O)NC2CC(C)(C)NC(C)(C)C2)c(C)c1,"inconclusive: 18.5 µM [inhibitor, single point]"
14,CC1CCc2nc3ccc(S(=O)(=O)N4CCC(C(=O)N5CCCCC5)CC4)cc3c(C(=O)O)c2C1 (stereo unspecified),"inconclusive: 5.86 µM [inhibitor, partial curve, poor fit]"
15,CC(C)Oc1ccc(CCC(=O)N/N=C/c2ccncc2)cc1,inactive
16,C=CCCC(=O)N1CCC(n2nccc2NC(=O)c2ccccc2C)CC1,"inconclusive: 18.5 µM [inhibitor, single point]"
17,CN(c1ccccc1)S(=O)(=O)c1ccc(C(=O)Nc2nnc(C3CC3)o2)cc1,active: 5.22 µM
18,O=C(Cc1cccs1)N1CCCC(c2nc3c(nnn3Cc3ccccc3Cl)c(=O)[nH]2)C1 (stereo unspecified),inactive
19,COc1cc(/C=C2/NC(=O)N(CC(=O)Nc3ccc(C)cc3)C2=O)ccc1Oc1ccc([N+](=O)[O-])cn1,inactive
20,Cc1ccc(N2CC(C(=O)Nc3nc4ccc(S(C)(=O)=O)cc4s3)CC2=O)cc1 (stereo unspecified),"inconclusive: 11.7 µM [inhibitor, single point]"

# Exported tab-delimited: entries from further up.
row	Compound	Potency
3	COC(=O)C1=C(c2ccc(F)cc2OCc2ccccc2)C[C@@H]2CC[C@H]1N2C(=O)NCc1ccc(Br)cc1	inconclusive: 2.62 µM [inhibitor, full curve]
4	NNC(=S)Nc1ccc(OC(F)(F)F)cc1	inconclusive: 16.5 µM [inhibitor, single point]
